Values of other authors as cited in patent publication US7713942B2, “Cage-like microparticle complexes comprising sterols and saponins for delivery of polynucleotides” (Nordic Vaccine Technology A/S, priority 2001, dated 2010).
Some of these results come from one statement about several compounds together.

Biological target: T1, interluekin-1 (IL-1) receptor (Homo sapiens, UniProt P14778)
T1 sequence (P14778 18-569): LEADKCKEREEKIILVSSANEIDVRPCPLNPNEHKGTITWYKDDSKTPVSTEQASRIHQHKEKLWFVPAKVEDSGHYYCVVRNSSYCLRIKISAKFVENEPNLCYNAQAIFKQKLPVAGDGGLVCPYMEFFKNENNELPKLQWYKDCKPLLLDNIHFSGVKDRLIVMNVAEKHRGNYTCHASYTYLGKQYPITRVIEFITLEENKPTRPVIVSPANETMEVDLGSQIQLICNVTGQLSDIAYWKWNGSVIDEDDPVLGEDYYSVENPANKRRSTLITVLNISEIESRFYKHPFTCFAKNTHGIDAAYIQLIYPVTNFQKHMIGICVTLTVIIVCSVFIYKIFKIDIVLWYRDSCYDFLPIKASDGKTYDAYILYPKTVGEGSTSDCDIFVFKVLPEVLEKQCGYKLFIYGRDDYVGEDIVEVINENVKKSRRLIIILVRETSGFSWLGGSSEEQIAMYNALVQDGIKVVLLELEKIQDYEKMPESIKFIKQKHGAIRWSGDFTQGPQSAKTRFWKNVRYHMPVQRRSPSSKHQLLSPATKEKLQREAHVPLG
Conditions: cited from earlier work

Row | Substance | Kd
1 | AcPhe-Glu, Trp-Pro-Gly-Trp-Tyr-Gln-Aze-Tyr-Ala-Leu-Pro-Leu -CONH2 | 10^−10 to 10^−12 M
2 | Ac-Phe-Glu-Trp-Pro-Gly-Trp-Tyr-Gln-Aze-Tyr-Ala-Leu-Pro-Leu- | 10^−10 to 10^−12 M
